Article PMC9435650
These are yes or no findings as the source states them, for the method shown. Binding seen in cells or lysates may run through a third protein. Some entries that bind do so weakly or less than the wild type.

Sequences of proteins named here, by UniProt entry; tags and fusion partners are left off. Residues count along the entry.
UniProt P35869, residues 11-848: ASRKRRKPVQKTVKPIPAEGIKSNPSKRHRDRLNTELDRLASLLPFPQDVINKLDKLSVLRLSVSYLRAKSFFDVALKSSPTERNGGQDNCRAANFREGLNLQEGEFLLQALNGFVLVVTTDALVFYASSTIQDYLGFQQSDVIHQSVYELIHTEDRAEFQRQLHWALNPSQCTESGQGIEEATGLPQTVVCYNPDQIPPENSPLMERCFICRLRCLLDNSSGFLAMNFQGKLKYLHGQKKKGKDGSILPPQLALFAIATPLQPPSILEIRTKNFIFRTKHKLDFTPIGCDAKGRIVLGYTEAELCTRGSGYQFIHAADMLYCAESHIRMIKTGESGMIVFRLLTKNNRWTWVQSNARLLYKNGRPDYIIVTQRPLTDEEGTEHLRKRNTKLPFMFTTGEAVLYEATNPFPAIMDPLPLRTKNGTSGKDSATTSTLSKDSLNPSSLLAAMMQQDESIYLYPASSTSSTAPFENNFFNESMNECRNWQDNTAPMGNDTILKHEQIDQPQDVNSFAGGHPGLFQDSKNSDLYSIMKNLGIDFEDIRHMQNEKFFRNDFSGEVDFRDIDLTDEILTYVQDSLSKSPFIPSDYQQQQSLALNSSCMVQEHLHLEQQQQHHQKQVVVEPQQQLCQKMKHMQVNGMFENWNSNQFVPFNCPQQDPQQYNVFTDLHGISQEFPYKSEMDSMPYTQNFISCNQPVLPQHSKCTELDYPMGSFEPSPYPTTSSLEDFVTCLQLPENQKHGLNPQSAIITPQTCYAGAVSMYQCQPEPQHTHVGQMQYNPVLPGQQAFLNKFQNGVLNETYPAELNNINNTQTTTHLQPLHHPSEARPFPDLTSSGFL

Molecular target: aryl hydrocarbon receptor (human (endogenous in primary normal human epidermal keratinocytes)) (UniProt P35869)
Experiment: proximity ligation; Duolink proximity ligation on fixed, permeabilised primary human keratinocytes; endogenous proteins; mouse anti-AhR (A-3) with rabbit anti-LC3 or rabbit anti-p62; cells treated with 10 ug/mL hBD-3 or 0.01% acetic acid (vehicle) for 9 hours, with control siRNA or AhR siRNA

- binding: binds
Substance: sequestosome-1/p62 (from UniProt Q13501 1-440)
